# Measurements from PubChem BioAssay (EPA / NIEHS).
# Protein sequences, listed by entry. Tags and fused reporters are not part of them.
# UniProt P11712, whole entry, looked up: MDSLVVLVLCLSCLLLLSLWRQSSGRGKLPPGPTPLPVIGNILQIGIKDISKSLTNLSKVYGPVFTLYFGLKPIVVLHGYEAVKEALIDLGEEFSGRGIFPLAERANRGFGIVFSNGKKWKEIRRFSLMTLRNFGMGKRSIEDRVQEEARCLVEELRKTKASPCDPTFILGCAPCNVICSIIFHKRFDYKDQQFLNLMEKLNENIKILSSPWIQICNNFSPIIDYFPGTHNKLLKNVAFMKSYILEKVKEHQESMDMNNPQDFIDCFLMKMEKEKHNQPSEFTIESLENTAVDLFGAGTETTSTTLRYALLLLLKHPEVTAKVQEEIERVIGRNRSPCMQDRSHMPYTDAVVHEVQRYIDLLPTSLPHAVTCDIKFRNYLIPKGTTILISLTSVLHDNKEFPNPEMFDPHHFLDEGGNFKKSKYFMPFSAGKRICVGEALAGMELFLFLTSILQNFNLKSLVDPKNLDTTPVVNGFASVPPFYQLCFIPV
# The shares of active, inactive and inconclusive entries below differ from those in the screen. Potencies beside an inconclusive call are fits to weak or partial responses and may not hold up. Activity calls are given as the source filed them. Rule for the calls: active = hit-call score of the fitted dose curve at least 0.9, where 1 is the maximum; inconclusive = response in the unintended direction; inactive = score below 0.9.
# Read-out: Cytochrome P450 2C9 (Homo sapiens) (UniProt P11712)
# Test: CLD_CYP2C9_24hr: CellzDirect (CLD) Gene Expression Assay for xenobiotic metabolism (CYP2C9) at 24 hours (AID 2283688);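 for AC50: potency for induction meaning a rise in CYP2C9 mRNA over DMSO vehicle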
# Method: CLD_24hr is a cell-based, multiplexed-readout assay that uses hepatocyte, a human liver primary cell, with measurements taken at 24 hours after chemical dosing in a 96-well plate.CLD_CYP2C9_24hr is one of 16 assay component(s) measured or calculated from the CLD_24hr assay. It is designed to make measurements of mRNA induction, a form of inducible reporter, as detected with chemiluminescence signals by Quantitative Nuclease Protection Assay (qNPA) technology.Data from the assay component CLD_CYP2C9_24hr was analyzed at the endpoint, CLD_CYP2C9_24hr, in the positive analysis fitting direction relative to DMSO as the negative control and baseline of activity. Using a type of inducible reporter, gain-of-signal activity can be used to understand changes in the reporter gene as they relate to the gene CYP2C9. Furthermore, this assay endpoint can be referred to as a primary readout. To generalize the intended target to other relatable targets, this assay endpoint is annotated to the cyp intended target family, where subfamily is xenobiotic metabolism.
# Human hepatocyte cultures were treated daily for two consecutive days with fresh dosing solutions containing appropriate concentrations of the 320 ToxCast chemicals (chemical identities were blinded to CellzDirect and other ToxCast collaborators), vehicle control (0.2% DMSO), and positive control inducers as summarized in Table 1. Due to the large number of treatment groups and chemicals examined, the ToxCast chemicals were divided into two groups (spanning two independent cultures of hepatocytes from separate donor preparations (Hu778: ToxCast plates 1 and 2; Hu776: ToxCast plates 3 and 4). Each preparation of human hepatocyte cultures was treated with respective vehicle control, medium only control, set of six positive controls/reference chemicals for the five hepatic receptor pathways, and a subset of eight of the ToxCast chemicals (indoxacarb, pyrithiobac-sodium, norflurazon, cyhalofop-butyl, methomyl, thiram, acetochlor, and propiconazole). These replicate data, coupled with internal replicates designed within the blinded ToxCast chemical library, provided additional data to evaluate interindividual differences between hepatocyte preparations and their potential impact on chemical profiles.Cell morphology and integrity were evaluated using phase-contrast microscopy as an indicator of hepatocyte cell health (Tyson & Green, 1987). Cultures for each treatment group (i.e., media, vehicle [0.2% DMSO], positive control inducers [multiple concentrations], and the ToxCast chemicals [multiple concentrations]) were observed and cell morphology was assessed relative to vehicle control cultures at each harvest time point (0, 6, 24, or 48 h). […] Images were evaluated at the conclusion of the study to assess changes in cell integrity and account for the effects of chemical exposure on uncharacteristic changes in concentration-dependent gene expression profiles. The results from these determinations of apparent cytotoxicity were annotated (yes/no) alongside the corresponding qNPA data for reference.At the conclusion of each treatment period, hepatocyte cultures (96-well) were washed with 1 volume of HBSS, lysed by addition of 25 ul ArrayPlate lysis buffer (HTG, Tucson, AZ), and 70 ul/well of Denaturation Oil, denatured by incubation at 95C for 10 min, and frozen at approximately -70C until analysis by nuclease protection assay (qNPA) (Roberts et al., 2007). For qNPA analysis, cell lysates were thawed at 50C for approximately 30 min, qNPA probes were added, and samples were incubated at 95C for 10 min to begin the detection process by denaturing the target RNA, dissociating the duplexes and secondary structure hybridization. At the conclusion of the hybridization period, S1 nuclease reagent was added to each sample to digest all nonprotected nucleotides at 50C for 60-90 min. […]
Compound,AC50,outcome
N#CSCSc1nc2ccccc2s1,inconclusive: 20000 nM,–
CCCCOC(=O)[C@@H](C)Oc1ccc(Oc2ccc(C(F)(F)F)cn2)cc1,inconclusive: 3.47 nM,–
COCCO,–,inactive
Cc1nn(C)c(Oc2ccccc2)c1C=NOCc1ccc(C(=O)OC(C)(C)C)cc1,inconclusive: 18.8 nM,–
CSC(=O)c1cccc2nnsc12,inconclusive: 3970 nM,–
COC(=O)c1ccccc1C(=O)O,inconclusive: 90.2 nM,–
CCOC(=O)C(C)Oc1ccc(Oc2cnc3cc(Cl)ccc3n2)cc1 (centres undefined),inconclusive: 0.4 nM,–
CC1(C)C(C=C(Cl)Cl)C1C(=O)OCc1cccc(Oc2ccccc2)c1 (centres undefined),–,inactive
COc1nc(C)nc(NC(=O)NS(=O)(=O)c2ccccc2OCCCl)n1,inconclusive: 52.1 nM,–
O=C(O)C1(C(=O)Nc2ccc(Cl)cc2Cl)CC1,inconclusive: 4.35 nM,–
CN(C)C(=O)Nc1ccc(Cl)c(Cl)c1,inconclusive: 20000 nM,–
CCOC(=O)COc1cc(-n2ncc(C(F)(F)F)c(C)c2=O)c(F)cc1Cl,inconclusive: 62.7 nM,–
CCCCCOC(=O)COc1cc(N2C(=O)C3=C(CCCC3)C2=O)c(F)cc1Cl,–,inactive
c1ccc2[nH]c(-c3cscn3)nc2c1,inconclusive: 4760 nM,–

# Reformatted tab-delimited: part of the list above
Compound	AC50	outcome
Cc1nn(C)c(Oc2ccccc2)c1C=NOCc1ccc(C(=O)OC(C)(C)C)cc1	inconclusive: 18.8 nM	–
CSC(=O)c1cccc2nnsc12	inconclusive: 3970 nM	–
